No constants are given. Whether binding was seen depends on the method and setting. Some entries that bind do so weakly or less than the wild type. One block for each binder: values may come before it.
Legend:
Assay in all cases: cryo-EM structure; Pol I Initial Transcribing Complex assembled from Pol I, Rrn3, Core Factor and TBP on a biotinylated rDNA promoter scaffold with a 17-nt mismatched bubble and a 6-nt RNA; held on streptavidin beads, eluted with EcoRI, crosslinked with 0.185% glutaraldehyde; three states classified from one sample; both purified
[1] = target: T1, Rrn6 (S. cerevisiae) (UniProt P32786)
T1 sequence: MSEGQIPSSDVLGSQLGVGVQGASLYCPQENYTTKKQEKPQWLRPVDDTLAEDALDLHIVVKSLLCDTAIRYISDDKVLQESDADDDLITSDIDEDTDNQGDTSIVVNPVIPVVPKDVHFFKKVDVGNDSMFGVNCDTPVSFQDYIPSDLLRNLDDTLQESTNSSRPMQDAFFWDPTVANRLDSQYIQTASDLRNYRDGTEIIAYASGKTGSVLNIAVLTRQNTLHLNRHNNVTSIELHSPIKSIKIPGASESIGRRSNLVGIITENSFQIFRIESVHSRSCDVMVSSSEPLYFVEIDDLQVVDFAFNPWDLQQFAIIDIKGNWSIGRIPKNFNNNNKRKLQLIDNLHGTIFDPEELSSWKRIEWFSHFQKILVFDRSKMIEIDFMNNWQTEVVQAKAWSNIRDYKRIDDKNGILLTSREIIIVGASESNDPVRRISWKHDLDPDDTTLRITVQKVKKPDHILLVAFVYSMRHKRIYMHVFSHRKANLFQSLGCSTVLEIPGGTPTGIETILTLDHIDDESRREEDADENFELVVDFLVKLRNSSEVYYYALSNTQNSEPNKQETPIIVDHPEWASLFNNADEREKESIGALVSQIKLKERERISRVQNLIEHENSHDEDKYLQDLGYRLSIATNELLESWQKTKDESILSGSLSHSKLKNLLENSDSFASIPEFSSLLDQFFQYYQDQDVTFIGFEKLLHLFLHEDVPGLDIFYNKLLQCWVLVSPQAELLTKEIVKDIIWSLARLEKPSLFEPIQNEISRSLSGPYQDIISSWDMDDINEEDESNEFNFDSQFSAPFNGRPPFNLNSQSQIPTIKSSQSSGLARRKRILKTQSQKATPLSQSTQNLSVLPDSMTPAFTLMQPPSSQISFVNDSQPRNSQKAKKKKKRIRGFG

[2] = target: Core Factor (S. cerevisiae) (UniProt P40992+Q04712+P32786)
[3] = target: T2, Rrn11 (S. cerevisiae) (UniProt Q04712)
T2 sequence: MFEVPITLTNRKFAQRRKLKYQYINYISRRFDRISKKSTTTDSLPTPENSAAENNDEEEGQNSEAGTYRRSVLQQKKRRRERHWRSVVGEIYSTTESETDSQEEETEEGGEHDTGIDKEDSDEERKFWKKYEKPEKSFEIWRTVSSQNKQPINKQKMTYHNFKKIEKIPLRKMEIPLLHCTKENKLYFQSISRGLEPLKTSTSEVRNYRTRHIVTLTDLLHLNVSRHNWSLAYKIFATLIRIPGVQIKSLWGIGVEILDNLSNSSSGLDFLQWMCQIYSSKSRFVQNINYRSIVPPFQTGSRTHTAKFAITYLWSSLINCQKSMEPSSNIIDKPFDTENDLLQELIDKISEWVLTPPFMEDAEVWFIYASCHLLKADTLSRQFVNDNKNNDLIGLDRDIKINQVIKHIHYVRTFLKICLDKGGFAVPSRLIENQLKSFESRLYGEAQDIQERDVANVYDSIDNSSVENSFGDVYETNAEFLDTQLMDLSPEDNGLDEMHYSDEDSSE

- binding [1]: binds
B1: Rrn11 (natural protein, S. cerevisiae)
chain: T2 sequence
notes: Rrn11, Core Factor subunit, S. cerevisiae; Stood in the assay as a subunit of Core Factor; source: E. coli BL21-CodonPlus(DE3)-RIL, co-expressed as Core Factor from pET-CF, purified (Ni-NTA, HiTrap Heparin, HiTrap Q)

- binding [2]: no binding (tested: ~50 picomole TBP)
B2: TATA-box Binding Protein (protein, UniProt P13393 1-240)
chain: MADEERLKEFKEANKIVFDPNTRQVWENQNRDGTKPATTFQSEEDIKRAAPESEKDTSATSGIVPTLQNIVATVTLGCRLDLKTVALHARNAEYNPKRFAAVIMRIREPKTTALIFASGKMVVTGAKSEDDSKLASRKYARIIQKIGFAAKFTDFKIQNIVGSCDVKFPIRLEGLAFSHGTFSSYEPELFPGLIYRMVKPKIVLLIFVSGKIVLTGAKQREEIYQAFEAIYPVLSEFRKM

- binding [3]: binds
- binding [1]: binds
B3: Rrn7 (protein, UniProt P40992 1-514)
chain: MSTFIRGPICGTDNCPSRLWRIIDGRRTCQYGHVMEGDVEFNDDEDDLNGLGAGVITRRLNLTTNATGSFQSSQLTNSQLLQQQQRQSHKKFKKLIGHEAKLLFLKSFQFILKRQIRWLITEMRFPKEFEHVAKIIWLKILKTINDQPQEELKLQLHMTSTISILYLASTHLSLPVYTCDYIKWICTAKMPYFQASEILPKSWRIQLPNYYVSILEGSISPFNGQLYNKIALTCGMIHFKEFFNSEISCQGLLLKLVMQCALPPEFYFYTKQVIEFEETDIRNLTLWERTDERHTGRVSNHAELRVLSYFMLTINWMLSFDRDRQYPLKWILSLTESLTQRTTTSESIGRNIVKVVYPDKPTSSDYFQWSEEETLEFLKWMEKQFLPTQTKSLHNENGSMEMTIDQKIARRKLYKIFPLDREANHDGEFNDSTHQLTFIEDLQERYAKQTPFFESNKIRDSLNYQEANPPARKEAIGRLLTHIASQLLVDFAISKEQLKDCISRIKNACLHRMN

Source: article PMC5489313, “Structural mechanism of ATP-independent transcription initiation by RNA polymerase I” (eLife, 2017)
